Results from patent US10450356B2, “PRAME derived peptides and immunogenic compositions comprising these” (Academisch Ziekenhuis Leiden H.O.D.N. LUMC, priority 2007, dated 2019).
For at least one compound, name, drawing or mass did not settle the structure. Where a SMILES comes first, the peptide text is derived from it.

Target: T1, HLA-B35 (B*3501) (Homo sapiens, UniProt P01889, A329T/A93T/A95T/C349S/D201E/D98Y/E176V/E187L/E204Q/E69T/I218V/K202T/L119I/Q94N/R155S/R180L/S121R/S35A/S48A/T118I/V127L/V306I/V36M/Y140S/Y91F)
T1 construct: EBV transformed human B cells (B-LCL) were used; endogenous in cells; host or cells: B-LCL BVR
Assay: HLA class I competition-based cellular binding assay, HLA-B35
Conditions: read-out: Binding (IC50); HLA-B*3501; FL-labeled reference peptide, BVR B-LCL

Q: Which IC50 does the source give for CC[C@H](C)[C@H](NC(=O)[C@@H]1CCCN1C(=O)[C@@H](N)CCC(=O)O)C(=O)N[C@@H](CC(C)C)C(=O)N[C@@H](CS)C(=O)N1CCC[C@H]1C(=O)N[C@@H](CS)C(=O)N[C@@H](Cc1ccccc1)C(=O)N[C@@H](CCSC)C(=O)O (H-EPILCPCFM-OH) here?
A: Its IC50 is under 1000 nM.
